Results from article PMC8810010.
No constants are given. Whether binding was seen depends on the method and setting. Binding seen in cells or lysates may run through a third protein. Some results given as binding are weak or reduced against the parent protein; the word gives no strength.

T1: ER resident protein 44 (ERp44) (human (endogenous in HTR-8/SVneo and JEG-3)) (UniProt Q9BS26)
T1 sequence: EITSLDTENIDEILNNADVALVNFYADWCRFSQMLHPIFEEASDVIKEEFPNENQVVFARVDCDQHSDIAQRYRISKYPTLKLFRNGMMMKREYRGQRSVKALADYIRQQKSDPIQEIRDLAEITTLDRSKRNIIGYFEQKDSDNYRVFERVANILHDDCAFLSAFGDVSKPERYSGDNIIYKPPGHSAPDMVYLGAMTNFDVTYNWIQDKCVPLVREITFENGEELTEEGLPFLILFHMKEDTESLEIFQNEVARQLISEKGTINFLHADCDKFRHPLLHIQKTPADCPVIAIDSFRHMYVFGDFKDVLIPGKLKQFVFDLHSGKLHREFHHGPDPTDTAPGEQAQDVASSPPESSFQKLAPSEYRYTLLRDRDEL

T2: Protein tyrosine phosphatase receptor type O (PTPRO) (human (endogenous in HTR-8/SVneo and JEG-3)) (UniProt Q16827)
T2 sequence: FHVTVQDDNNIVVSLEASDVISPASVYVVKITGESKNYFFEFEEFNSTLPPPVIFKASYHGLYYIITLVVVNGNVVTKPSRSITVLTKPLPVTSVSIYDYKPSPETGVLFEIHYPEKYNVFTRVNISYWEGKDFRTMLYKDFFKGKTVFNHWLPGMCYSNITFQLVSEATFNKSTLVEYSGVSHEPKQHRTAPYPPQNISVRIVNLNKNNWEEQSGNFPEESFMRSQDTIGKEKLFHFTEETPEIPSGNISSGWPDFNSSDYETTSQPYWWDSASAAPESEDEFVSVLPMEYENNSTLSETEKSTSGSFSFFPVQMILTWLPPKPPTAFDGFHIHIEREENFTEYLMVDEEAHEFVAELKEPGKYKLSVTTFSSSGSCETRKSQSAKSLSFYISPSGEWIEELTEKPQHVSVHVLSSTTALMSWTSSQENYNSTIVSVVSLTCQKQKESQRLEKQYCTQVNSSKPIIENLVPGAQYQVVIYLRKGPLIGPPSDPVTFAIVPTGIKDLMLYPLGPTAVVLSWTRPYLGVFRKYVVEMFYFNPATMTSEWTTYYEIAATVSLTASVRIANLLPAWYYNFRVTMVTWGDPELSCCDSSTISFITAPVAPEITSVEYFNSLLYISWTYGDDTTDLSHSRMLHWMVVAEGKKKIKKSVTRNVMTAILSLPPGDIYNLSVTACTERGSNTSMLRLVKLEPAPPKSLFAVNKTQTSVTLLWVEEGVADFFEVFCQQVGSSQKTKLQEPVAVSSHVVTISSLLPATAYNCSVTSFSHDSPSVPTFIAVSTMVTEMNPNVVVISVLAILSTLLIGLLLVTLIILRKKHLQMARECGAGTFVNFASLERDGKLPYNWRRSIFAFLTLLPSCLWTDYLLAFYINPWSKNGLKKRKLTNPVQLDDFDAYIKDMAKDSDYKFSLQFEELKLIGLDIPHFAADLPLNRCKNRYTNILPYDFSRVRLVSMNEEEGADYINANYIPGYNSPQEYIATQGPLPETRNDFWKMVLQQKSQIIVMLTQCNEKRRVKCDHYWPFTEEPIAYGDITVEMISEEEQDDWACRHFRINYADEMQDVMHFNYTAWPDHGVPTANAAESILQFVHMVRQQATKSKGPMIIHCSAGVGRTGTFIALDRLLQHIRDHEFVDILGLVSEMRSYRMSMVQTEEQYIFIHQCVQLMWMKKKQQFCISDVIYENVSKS


Key:
[1] = target: T1, ER resident protein 44 (ERp44) (human (endogenous in HTR-8/SVneo and JEG-3)); test: co-IP; lysates of HTR-8/SVneo and JEG-3 cells (IP lysis buffer); specific antibody or IgG added to the supernatant overnight at 4°C, protein A/G beads 2 h, washed 3 times with lysis buffer, western blot
[2] = target: T2, Protein tyrosine phosphatase receptor type O (PTPRO) (human (endogenous in HTR-8/SVneo and JEG-3)); test: as above

binding [1] | binding [2] | Binder
binds |  | Protein tyrosine phosphatase receptor type O (PTPRO) (receptor, UniProt Q16827 30-1216) FHVTVQDDNNIVVSLEASDVISPASVYVVKITGESKNYFFEFEEFNSTLPPPVIFKASYHGLYYIITLVVVNGNVVTKPSRSITVLTKPLPVTSVSIYDYKPSPETGVLFEIHYPEKYNVFTRVNISYWEGKDFRTMLYKDFFKGKTVFNHWLPGMCYSNITFQLVSEATFNKSTLVEYSGVSHEPKQHRTAPYPPQNISVRIVNLNKNNWEEQSGNFPEESFMRSQDTIGKEKLFHFTEETPEIPSGNISSGWPDFNSSDYETTSQPYWWDSASAAPESEDEFVSVLPMEYENNSTLSETEKSTSGSFSFFPVQMILTWLPPKPPTAFDGFHIHIEREENFTEYLMVDEEAHEFVAELKEPGKYKLSVTTFSSSGSCETRKSQSAKSLSFYISPSGEWIEELTEKPQHVSVHVLSSTTALMSWTSSQENYNSTIVSVVSLTCQKQKESQRLEKQYCTQVNSSKPIIENLVPGAQYQVVIYLRKGPLIGPPSDPVTFAIVPTGIKDLMLYPLGPTAVVLSWTRPYLGVFRKYVVEMFYFNPATMTSEWTTYYEIAATVSLTASVRIANLLPAWYYNFRVTMVTWGDPELSCCDSSTISFITAPVAPEITSVEYFNSLLYISWTYGDDTTDLSHSRMLHWMVVAEGKKKIKKSVTRNVMTAILSLPPGDIYNLSVTACTERGSNTSMLRLVKLEPAPPKSLFAVNKTQTSVTLLWVEEGVADFFEVFCQQVGSSQKTKLQEPVAVSSHVVTISSLLPATAYNCSVTSFSHDSPSVPTFIAVSTMVTEMNPNVVVISVLAILSTLLIGLLLVTLIILRKKHLQMARECGAGTFVNFASLERDGKLPYNWRRSIFAFLTLLPSCLWTDYLLAFYINPWSKNGLKKRKLTNPVQLDDFDAYIKDMAKDSDYKFSLQFEELKLIGLDIPHFAADLPLNRCKNRYTNILPYDFSRVRLVSMNEEEGADYINANYIPGYNSPQEYIATQGPLPETRNDFWKMVLQQKSQIIVMLTQCNEKRRVKCDHYWPFTEEPIAYGDITVEMISEEEQDDWACRHFRINYADEMQDVMHFNYTAWPDHGVPTANAAESILQFVHMVRQQATKSKGPMIIHCSAGVGRTGTFIALDRLLQHIRDHEFVDILGLVSEMRSYRMSMVQTEEQYIFIHQCVQLMWMKKKQQFCISDVIYENVSKS
 | binds | ER resident protein 44 (ERp44) (protein, UniProt Q9BS26 30-406) EITSLDTENIDEILNNADVALVNFYADWCRFSQMLHPIFEEASDVIKEEFPNENQVVFARVDCDQHSDIAQRYRISKYPTLKLFRNGMMMKREYRGQRSVKALADYIRQQKSDPIQEIRDLAEITTLDRSKRNIIGYFEQKDSDNYRVFERVANILHDDCAFLSAFGDVSKPERYSGDNIIYKPPGHSAPDMVYLGAMTNFDVTYNWIQDKCVPLVREITFENGEELTEEGLPFLILFHMKEDTESLEIFQNEVARQLISEKGTINFLHADCDKFRHPLLHIQKTPADCPVIAIDSFRHMYVFGDFKDVLIPGKLKQFVFDLHSGKLHREFHHGPDPTDTAPGEQAQDVASSPPESSFQKLAPSEYRYTLLRDRDEL
